According to patent US5698547A, “Cephalosporin antibiotics” (Microcide Pharmaceuticals, Inc., priority 1995, dated 1997):
For at least one compound, name, drawing or mass did not settle the structure.

Tests used:
[1] = system: S. aureus Col8A (Meth^S) (lac^-); test: MIC by agar dilution, S. aureus Col8A (Meth^S) (lac^-); assay type: cell-based; conditions: in words; lacks PBP2a
Method: The compounds of the invention were evaluated against several β-lactamresistant bacteria strains by determining the minimum inhibitory concentration (MIC, μg/ml) of each compound with respect to each strain. The MIC, the lowest concentration of antibiotic which inhibits growth of the test organism, was determined by the agar dilution method.
To determine the MIC for bacterial isolates, the test compound was incorporated in a series of two-fold dilutions into liquified Mueller-Hinton agar. Upon solidification, a number of different bacterial strains were spot inoculated with a replicating device onto the agar surface. […] The procedures used in these studies have been standardized by the National Committee for Clinical Laboratory Standards (NCCLS), as per the NCCLS publication entitled METHODS FOR DILUTION ANTIMICROBIAL SUSCEPTIBILITY TESTS (1991), which is incorporated herein by reference.
Aliquots of antimicrobial agents were prepared in phosphate buffered saline (PBS) at pH 7.2. Tween 20 or DMSO was used as a solubilizing vehicle as needed. Standard methods of vortexing, sonicating and gentle heat were used to facilitate solubilizing the test agent. […]
Disposable sterile 1 μL loops were used to inoculate test plates, with each isolate in a designated grid on the agar plate. […] Endpoints were assessed as the minimum inhibitory concentration (MIC) of antimicrobial agent. […]

Gram-positive organisms = test: In vitro antibacterial evaluation, Gram-positive organisms; assay type: cell-based; conditions: in words

Row | Structure (SMILES) | activity against S. aureus Col 8A [1] | activity against Gram-positive organisms (Gram-positive organisms)
1 | CO/N=C(\C(=O)N[C@@H]1C(=O)N2C(C(=O)O)=C(COC(C)=O)CS[C@H]12)c1csc(N)n1 [Cefotaxime, (7R)-3-Acetoxymethyl-7-[(Z)-2-(aminothiazol-4-yl)-2-(methoxyimino)acetamido]-3-cephem-4-carboxylic acid, reference compound] | highly responsive | –
2 | Nc1nc(/C(=N/O)C(=O)N[C@@H]2C(=O)N3C(C(=O)O)=C(Sc4ccccc4I)CS[C@H]23)cs1 [Cmpd 22, (7R)-7-[(Z)-2-(aminothiazol-4-yl)-2-(hydroxyimino)acetamido]-3-(o-iodophenylthio)-3-cephem-4-carboxylic acid] | – | effective
